Source: article PMC5859251
These are yes or no findings as the source states them, for the method shown. Binding seen in cells or lysates may run through a third protein. Some entries that bind do so weakly or less than the wild type. Tags and fused reporters may be left off the sequences shown.

T1: Myc-Flag-tagged TRIM29, full length (UniProt Q8R2Q0)
T1 sequence: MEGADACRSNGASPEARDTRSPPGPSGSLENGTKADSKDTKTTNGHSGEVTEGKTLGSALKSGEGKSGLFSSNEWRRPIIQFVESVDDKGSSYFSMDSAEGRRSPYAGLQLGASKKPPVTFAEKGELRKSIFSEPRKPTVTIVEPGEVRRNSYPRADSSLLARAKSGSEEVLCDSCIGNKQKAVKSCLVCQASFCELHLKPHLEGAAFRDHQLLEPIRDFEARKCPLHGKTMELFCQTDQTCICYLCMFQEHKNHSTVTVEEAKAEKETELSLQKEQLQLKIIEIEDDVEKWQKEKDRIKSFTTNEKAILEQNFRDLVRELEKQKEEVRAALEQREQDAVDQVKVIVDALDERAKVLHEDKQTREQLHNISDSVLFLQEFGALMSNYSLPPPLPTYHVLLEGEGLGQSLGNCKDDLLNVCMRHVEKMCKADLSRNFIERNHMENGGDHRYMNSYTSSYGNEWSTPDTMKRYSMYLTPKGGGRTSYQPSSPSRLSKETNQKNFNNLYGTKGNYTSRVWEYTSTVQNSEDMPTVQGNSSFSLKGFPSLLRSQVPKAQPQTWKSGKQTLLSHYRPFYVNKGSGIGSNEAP

B1: STING 211-C (domain or fragment, UniProt Q3TBT3 211-378)
chain: LSVVDPNIRFRDMLPQQNIDRAGIKNRVYSNSVYEILENGQPAGVCILEYATPLQTLFAMSQDAKAGFSREDRLEQAKLFCRTLEEILEDVPESRNNCRLIVYQEPTDGNSFSLSQEVLRHIRQEEKEEVTMNAPMTSVAPPPSVLSQEPRLLISGMDQPLPLRTDLI
B2: STING 161-C (domain or fragment, UniProt Q3TBT3 161-378)
chain: SYYIGYLRLILPGLQARIRMFNQLHNNMLSGAGSRRLYILFPLDCGVPDNLSVVDPNIRFRDMLPQQNIDRAGIKNRVYSNSVYEILENGQPAGVCILEYATPLQTLFAMSQDAKAGFSREDRLEQAKLFCRTLEEILEDVPESRNNCRLIVYQEPTDGNSFSLSQEVLRHIRQEEKEEVTMNAPMTSVAPPPSVLSQEPRLLISGMDQPLPLRTDLI
B3: STING 241-C (domain or fragment, UniProt Q3TBT3 241-378)
chain: NSVYEILENGQPAGVCILEYATPLQTLFAMSQDAKAGFSREDRLEQAKLFCRTLEEILEDVPESRNNCRLIVYQEPTDGNSFSLSQEVLRHIRQEEKEEVTMNAPMTSVAPPPSVLSQEPRLLISGMDQPLPLRTDLI
B4: STING 1-160 (domain or fragment, UniProt Q3TBT3 1-160)
chain: MPYSNLHPAIPRPRGHRSKYVALIFLVASLMILWVAKDPPNHTLKYLALHLASHELGLLLKNLCCLAEELCHVQSRYQGSYWKAVRACLGCPIHCMAMILLSSYFYFLQNTADIYLSWMFGLLVLYKSLSMLLGLQSLTPAEVSAVCEEKKLNVAHGLAW

Each binder was assayed against T1, Myc-Flag-tagged TRIM29, full length (assay: co-IP; TRIM29 and STING (full length or truncated) co-expressed in HEK 293T cells; IP and IB with indicated antibodies).

Row | binding | Binder
1 | binds | B1
2 | binds | B2
3 | no binding | B3
4 | no binding | B4
